# PubChem BioAssay AID493014 (National Center for Advancing Translational Sciences (NCATS), 2011)
# “And” between values parts separate entries of the source, which are not always exact repeats. Identical values can stand only once. Hit rate of the full screen: of about 340,000 compounds, about 170 (0.05%) were called active. The inconclusive results got no clear call from the source; some entries with a clear call stand among them for comparison. Calls come from the whole dose curve; as a rule, active = well fitted inhibition curve with a large enough effect in the signal ratio, with a control signal flat (not every such curve was filed as active); inconclusive = small, poorly fitted or top-dose-only effect, or effect the other way, or a change in a side signal; inactive = flat fitted curve, though single readings scatter; the % refers to the signal ratio. Potencies beside an inconclusive call are fits to weak or partial responses and may not hold up.
# Experiment: qHTS Assay to Find Inhibitors of Chronic Active B-Cell Receptor Signaling;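 for activity change, negative = inhibition: plate controls were basal doxycycline-induced cells for no effect and cells given 10 µM MG132 for full effect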
# Conditions: ABC-DLBCL IkBa-CBG/CBR reporter, luminescence ratio (green luciferase fused to IkBa over red control in TMD8 lymphoma cells), 4 h; activity change, negative = inhibition: at 46.1 µM (top of the series) unless noted
# Method in brief: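 Compounds up to 46 uM were incubated four hours with TMD8 cells whose green CBG68 luciferase is fused to IkappaBalpha; red CBR luminescence normalised the signal, and concentration-effect curves were fitted to fusion, red and ratio data.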
# Potency is the fitted concentration of half-maximal effect.
Structure (SMILES),"activity change, negative = inhibition",Potency
CCOC(=O)C1CCC(CN(Cc2ccc(OC)cc2)S(=O)(=O)c2ccc(F)c(C(=O)Nc3c(C)cccc3C)c2)CC1 (centres undefined),inactive,
Fc1ccc2nc(Nc3nc4cc5c(cc4s3)OCCO5)sc2c1,inconclusive: 0.792%,
COC(=O)c1ccccc1NC(=O)NCc1ccccc1,inconclusive: -24.7%,
O=c1c(N=Nc2ccc(O)cc2)c(-c2ccccc2)[nH]n1-c1ccc([N+](=O)[O-])cc1,inactive,
CC1CCN(c2nc(-c3ccccc3O)nc3ccccc23)CC1,inconclusive: -5.84%,
CCOc1ccccc1C1N=C(c2ccc(OC)cc2)CC(c2ccccc2O)N1 (centres undefined),,"inconclusive: 12.6 µM [falling, partial curve]"
Cc1ccc(/C=N/NC(=O)c2cc(C)oc2C)o1,inconclusive: -27%,
Cc1nnc(NC(=O)CC(NC(=O)C(F)(F)F)c2ccccc2)s1 (centres undefined),,"inconclusive: 5.8 µM [falling, full curve]"
O=C(Cc1cnn(-c2ccccc2)c1)c1ccc(O)c(O)c1O,,"inconclusive: 5.8 µM [rising, full curve]"
O=C(C[n+]1ccc(/C=N/O)cc1)NC(=O)Nc1ccccc1,inconclusive: 6.86%,
COC(=O)c1sccc1NN1C(=O)c2ccccc2C1=O,,"inconclusive: 35.5 µM [falling, single point]"
CC1CN(C(=S)Nc2cccc([N+](=O)[O-])c2)CC(C)O1 (centres undefined),inactive,
CCOC(=O)c1ccc(NC(=O)Cn2nnc3ccccc32)cc1,inconclusive: 1.96%,
COc1ccc(C(=O)NCCCNC(=O)c2ccccn2)cc1Br,inconclusive: -2.64%,
Oc1ccc(NCc2ccc(OCc3ccccc3)cc2)cc1,,"inconclusive: 22.4 µM [falling, single point]"
COc1ccc(Cl)cc1C(=O)NCc1cn(C)nc1C,inconclusive: 1.33%,
CC(=O)Oc1ccc(/C=C2\C=C(c3ccc(C)cc3)OC2=O)cc1,inconclusive: -14.7%,
CCOc1ccc(OCCC(=O)OCC(=O)Nc2cc(S(=O)(=O)N3CCOCC3)ccc2C)cc1,inconclusive: 9.19%,
Cn1c(-c2ccc(F)cc2)cc2onc(-c3c(F)cccc3Cl)c2c1=O,inconclusive: 7.29%,
COc1ccc2[nH]c3c(=O)n(Cc4ccco4)cnc3c2c1,inconclusive: 4.3%,
CCCN(CCC)S(=O)(=O)c1ccc(C(=O)Nc2nnc(CSC)o2)cc1,inactive,
Cc1cc(C(=O)N2CCN(S(=O)(=O)c3ccccc3)CC2)c(C)o1,inactive,
O=C(COC(=O)c1ccc(S(=O)(=O)N2CCOCC2)cc1)NCc1ccccc1,inconclusive: 2.72%,
CC(C)(C)c1ccc(C(=O)NCc2nnc(SCC(=O)NC3CCCCC3)o2)cc1,,"inconclusive: 31.6 µM [falling, partial curve, poor fit]"
Cc1cccc2c(N)c3c(nc12)N(C)CC3,inconclusive: 0.649%,
COc1ccc(C(=O)/C=C/c2cn(CC(O)CN3CCOCC3)c3ccccc23)cc1 (centres undefined),,"inconclusive: 23.1 µM [falling, single point]"
CNc1ncnc2c1ncn2[C@@H]1O[C@H](CO)[C@@H](O)[C@H]1O,,"inconclusive: 29.1 µM [falling, single point]"

Structure (SMILES),"activity change, negative = inhibition",Potency
CCCCCc1cc(OC)cc2c1C(=O)OC(C)(C)O2,inconclusive: 2.18%,
O=C(c1cc(-c2ccc(Cl)cc2)on1)N1CCN(c2ccc(F)cc2)CC1,,"inconclusive: 10 µM [falling, partial curve, poor fit]"
COc1ccc2c(c1)C(NC(=O)C(F)(F)F)CC2=O (centres undefined),inconclusive: 26.8%,
COc1ccc2o/c(=N\O)c(C(=O)Nc3ccccc3OC)cc2c1,,"inconclusive: 0.058 µM [falling, full curve, poor fit]"
COCCOC(=O)c1c(C)oc2ccc(NS(=O)(=O)c3ccccc3)cc12,inactive,
CC(C)Sc1nc2c(c(=O)[nH]1)C(c1cccs1)C1=C(CC(C)(C)CC1=O)N2 (centres undefined),inconclusive: 1.12%,
CC(C)=CCCC1=CCC(/C=N/NC(N)=O)C(C)C1 (centres undefined),inconclusive: 1.32%,
Cc1cn(C(=O)CN2C(=O)c3ccccc3C2=O)c(C)n1,inconclusive: 4.48%,
Cc1ccc(C(=O)Nc2ccsc2C(=O)O)cc1,,"inconclusive: 15.8 µM [falling, partial curve]"
Oc1ccccc1CNc1nccs1,inconclusive: 1.71%,
CN(C)CCCNc1cc(C(C)(C)C)nc2c(-c3ccccc3)cnn12,,"inconclusive: 8.91 µM [rising, partial curve, poor fit]"
Cc1ccc(-c2nn(-c3ccccc3)cc2/C=C/C(=O)O)o1,inconclusive: -0.426%,
O=C(CSc1nc2ccccc2c(=O)n1-c1ccc(F)cc1)Nc1cc(S(=O)(=O)N2CCOCC2)ccc1Cl,inconclusive: -2.03%,
Cc1cccc(NC(=S)N2CCN(Cc3ccc4c(c3)OCO4)CC2)c1C,inconclusive: 3.94%,
COc1cc(C(=O)OCC(=O)NCc2ccc(F)cc2)cc(NC(=O)c2cccs2)c1OC,inconclusive: -0.672%,
CCOC(=O)c1ccc(N=c2sc(C(=O)OC)cc(=O)n2-c2ccc(C(=O)OCC)cc2)cc1,inactive,
Cc1ccc(/C=N/NC(=O)c2cc(C)oc2C)cc1,,"inconclusive: 5.62 µM [falling, partial curve]"
COC(=O)c1ccc(C2C(C(=O)c3cc4ccccc4o3)=C(O)C(=O)N2c2cc(C)on2)cc1 (centres undefined),,"inconclusive: 25.1 µM [falling, single point]"
CCOC(=O)c1ccc(NC(C)=O)c([N+](=O)[O-])c1,inactive,
O=C(NC(=S)Nc1cccc2cnccc12)c1ccccc1,inconclusive: -6.76%,
COc1ccccc1C1C(C(=O)c2ccc(C)o2)=C(O)C(=O)N1c1cc(C)on1 (centres undefined),inconclusive: 6.19%,
CS(=O)(=O)N(Cc1ccc(Cl)cc1)c1ccc(C(=O)N2CCN(c3ccccc3)CC2)cc1,inconclusive: -20.5%,
Cc1cccc(NC(=O)COC(=O)c2cc3ccccc3oc2=O)c1,inactive,
CCc1nnc(NC(=O)CSc2ncc(-c3ccccc3)[nH]2)s1,inconclusive: 15.2%,
CC1CCN(S(=O)(=O)c2ccc3c(c2)oc(=O)n3CC(=O)O)CC1,inactive,
C/C(CCC1CC(C)(C)OC1=O)=N\NC(N)=S (centres undefined),,"inconclusive: 35.5 µM [falling, single point]"
CCOC(=O)N1CC=C2C(C#N)=C(N)C(C#N)(C#N)[C@H](c3ccsc3)[C@H]2C1,inconclusive: -6.14%,

Structure (SMILES),"activity change, negative = inhibition",Potency
O=C(c1ccccn1)N(Cc1ccco1)C1(C(=O)NC2CCCCC2)CCCCC1,inconclusive: -1.6%,
Cc1ccc(SCC(=O)c2ccc[nH]2)cc1,inactive,
CC(=O)n1cc(N(C(=O)CCl)c2ccc(Cl)cc2)c2ccccc21,inconclusive: -14.4%,
O=C(Nc1ccc2c(c1)Cc1ccccc1-2)c1ccco1,,"inconclusive: 22.4 µM [falling, single point]"
O=C1Nc2cc(C(=O)NCCCN3CCOCC3)ccc2S/C1=C/c1cccc(Cl)c1,inactive,
Cc1ccc(NC(=O)Cn2nc(C(=O)O)c3ccccc3c2=O)cc1S(=O)(=O)N1CCOCC1,inconclusive: -11.1%,
CCn1c(NCc2ccccn2)nc2c1c(=O)n(C)c(=O)n2C,inconclusive: 14.5%,
CC(C)N1CCN(Cc2cccs2)CC1CCO (centres undefined),,"inconclusive: 35.5 µM [falling, single point]"
CCOc1cc2[nH]c(=S)n(Cc3ccc(C(=O)NCCOC)cc3)c(=O)c2cc1OCC,,"inconclusive: 0.058 µM [falling, full curve, poor fit]"
COc1ccc(NC(=O)CSc2ncnc3c2cnn3Cc2ccccc2)cc1OC,inconclusive: 5.68%,
CCN1CCN(C(c2ccc(F)cc2)c2sc3nc(-c4ccco4)nn3c2O)CC1 (centres undefined),,"inconclusive: 6.31 µM [falling, single point]"
COc1ccc(NC(=O)CSCc2cc(=O)n3cc(C)sc3n2)cc1,inactive,
CN1CCc2c(sc(/N=C/c3c[nH]c4ccccc34)c2C(N)=O)C1,inconclusive: 3.33%,
O=C(CN1CCN(S(=O)(=O)c2ccc(Cl)cc2)CC1)NC1CCCC1,,"inconclusive: 0.0891 µM [falling, full curve, poor fit]"
Oc1ccc2ccccc2c1/C=N/n1cnnc1,inactive,
O=C(COC(=O)c1cc(S(=O)(=O)N2CCOCC2)ccc1F)c1ccc[nH]1,inconclusive: -1.17%,
CCCCCCCCCC(=O)N[C@@H]1c2cc(OC)c(OC)cc2C[C@H]1O,,"inconclusive: 23.1 µM [falling, partial curve, poor fit]"
COC(=O)C1=C(C)N(Cc2ccccc2)C(=NCc2ccc(OC)cc2)N[C@H]1c1ccccc1,inconclusive: -20% and inconclusive: -0.237%,
O=C(CSCc1cnn(-c2ccccc2)c1-n1cccc1)N1CCN(Cc2ccccc2)CC1,inconclusive: -12.9%,
Nc1nc(NCc2ccccc2)n(-c2ccccc2)n1,inconclusive: 2.37%,
Cn1cccc1C(=O)NC(=O)COC(=O)CNC(=O)CNC(=O)c1ccc(Cl)cc1Cl,inconclusive: 10.2%,
O=C(NNC(=O)C1CC1)Nc1ccc(Cl)cc1,inconclusive: 17%,
COc1ccc(C(=O)N/N=C(\C)c2ccc3c(c2)C2C=CCC2C(c2ccccc2)N3)cc1 (centres undefined),,"inconclusive: 14.6 µM [falling, partial curve]"
Cn1c(=O)oc2cc(S(=O)(=O)Nc3ccc(Cl)cc3)ccc21,inactive,
COc1ccc(C2c3[nH]c4ccccc4c3CCN2C(=O)c2ccc(=O)n(C)n2)c(F)c1 (centres undefined),,"inconclusive: 2.51 µM [falling, full curve]"
